# Assay results published in PubChem BioAssay (EPA / NIEHS).
# The chains behind the UniProt entries cited, without tags or fusion partners. Where a name states a change or a piece, a line headed by the entry shows the natural chain unless it says otherwise.
# UniProt P04637, whole entry, looked up: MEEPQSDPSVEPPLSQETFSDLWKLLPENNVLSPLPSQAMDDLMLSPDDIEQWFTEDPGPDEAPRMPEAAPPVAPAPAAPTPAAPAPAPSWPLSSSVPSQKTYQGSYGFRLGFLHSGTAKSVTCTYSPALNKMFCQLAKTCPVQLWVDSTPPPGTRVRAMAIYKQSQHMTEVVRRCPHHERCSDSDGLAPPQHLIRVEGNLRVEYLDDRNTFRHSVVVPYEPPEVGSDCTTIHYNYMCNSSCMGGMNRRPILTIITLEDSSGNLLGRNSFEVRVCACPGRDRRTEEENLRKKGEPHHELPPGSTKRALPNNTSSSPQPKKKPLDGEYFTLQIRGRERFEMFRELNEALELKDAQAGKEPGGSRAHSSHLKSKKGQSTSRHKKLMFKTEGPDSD
# UniProt P06401: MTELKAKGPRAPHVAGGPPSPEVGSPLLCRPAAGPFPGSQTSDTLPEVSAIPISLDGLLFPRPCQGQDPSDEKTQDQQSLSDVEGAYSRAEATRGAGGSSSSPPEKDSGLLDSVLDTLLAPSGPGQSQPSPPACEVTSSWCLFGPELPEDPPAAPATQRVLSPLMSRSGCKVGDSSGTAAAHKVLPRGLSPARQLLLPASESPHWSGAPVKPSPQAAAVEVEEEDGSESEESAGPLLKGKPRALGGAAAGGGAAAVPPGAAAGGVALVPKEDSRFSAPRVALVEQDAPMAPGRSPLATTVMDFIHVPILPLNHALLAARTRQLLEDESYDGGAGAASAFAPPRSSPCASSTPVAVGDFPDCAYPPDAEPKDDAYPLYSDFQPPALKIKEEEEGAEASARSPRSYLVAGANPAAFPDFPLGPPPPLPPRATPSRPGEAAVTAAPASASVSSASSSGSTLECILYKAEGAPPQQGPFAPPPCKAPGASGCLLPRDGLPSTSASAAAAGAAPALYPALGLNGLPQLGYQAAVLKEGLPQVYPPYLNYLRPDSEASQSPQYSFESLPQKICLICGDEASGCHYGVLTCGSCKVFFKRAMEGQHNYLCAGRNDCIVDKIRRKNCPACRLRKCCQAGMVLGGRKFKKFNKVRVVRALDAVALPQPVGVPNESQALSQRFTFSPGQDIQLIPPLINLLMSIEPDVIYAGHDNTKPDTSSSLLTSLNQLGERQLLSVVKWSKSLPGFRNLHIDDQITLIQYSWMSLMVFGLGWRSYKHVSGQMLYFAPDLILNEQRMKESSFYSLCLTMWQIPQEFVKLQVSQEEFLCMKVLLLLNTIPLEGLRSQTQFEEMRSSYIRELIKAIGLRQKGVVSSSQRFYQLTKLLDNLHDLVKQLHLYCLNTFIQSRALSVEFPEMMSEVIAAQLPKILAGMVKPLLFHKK
# UniProt P10827: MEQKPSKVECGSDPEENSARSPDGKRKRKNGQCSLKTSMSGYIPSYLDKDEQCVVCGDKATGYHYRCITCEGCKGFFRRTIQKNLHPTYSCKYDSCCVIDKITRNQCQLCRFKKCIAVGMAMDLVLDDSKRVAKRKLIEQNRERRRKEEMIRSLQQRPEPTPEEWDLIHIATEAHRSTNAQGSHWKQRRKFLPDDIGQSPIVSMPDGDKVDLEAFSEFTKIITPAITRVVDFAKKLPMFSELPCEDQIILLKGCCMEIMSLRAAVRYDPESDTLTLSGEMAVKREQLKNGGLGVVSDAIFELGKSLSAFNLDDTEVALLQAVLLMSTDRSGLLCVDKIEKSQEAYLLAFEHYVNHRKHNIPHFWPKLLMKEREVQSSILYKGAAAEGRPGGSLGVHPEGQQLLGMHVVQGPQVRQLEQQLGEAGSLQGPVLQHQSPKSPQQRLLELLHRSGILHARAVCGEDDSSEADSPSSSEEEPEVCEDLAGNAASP
# UniProt P10828: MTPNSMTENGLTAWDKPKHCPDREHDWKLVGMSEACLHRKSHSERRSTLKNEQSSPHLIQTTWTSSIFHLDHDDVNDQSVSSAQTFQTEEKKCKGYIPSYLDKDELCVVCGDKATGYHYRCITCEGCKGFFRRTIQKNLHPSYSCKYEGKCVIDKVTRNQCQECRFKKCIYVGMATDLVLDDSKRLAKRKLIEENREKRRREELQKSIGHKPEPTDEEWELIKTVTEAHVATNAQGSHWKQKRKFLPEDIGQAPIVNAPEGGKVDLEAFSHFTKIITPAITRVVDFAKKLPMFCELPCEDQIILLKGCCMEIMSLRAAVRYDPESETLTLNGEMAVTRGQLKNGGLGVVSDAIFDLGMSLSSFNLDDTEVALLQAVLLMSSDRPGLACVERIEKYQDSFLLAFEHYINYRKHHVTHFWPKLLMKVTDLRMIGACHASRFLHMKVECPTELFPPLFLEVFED
# UniProt P19793: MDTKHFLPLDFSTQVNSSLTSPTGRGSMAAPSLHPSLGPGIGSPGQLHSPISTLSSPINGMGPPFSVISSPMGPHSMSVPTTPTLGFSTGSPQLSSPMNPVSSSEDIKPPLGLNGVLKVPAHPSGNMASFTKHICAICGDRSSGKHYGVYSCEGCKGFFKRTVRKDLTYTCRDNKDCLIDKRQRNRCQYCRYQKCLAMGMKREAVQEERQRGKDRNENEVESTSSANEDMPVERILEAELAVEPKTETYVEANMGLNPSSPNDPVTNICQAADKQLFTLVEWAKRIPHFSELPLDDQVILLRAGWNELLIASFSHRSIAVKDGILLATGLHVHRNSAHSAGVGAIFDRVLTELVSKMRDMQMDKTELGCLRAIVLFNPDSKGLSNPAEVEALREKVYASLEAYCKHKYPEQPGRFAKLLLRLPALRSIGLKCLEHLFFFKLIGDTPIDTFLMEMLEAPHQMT
# Inconclusive means that the source gave no clear call. Such entries were picked first, then a sample of the others. For some assays here: A potency beside an inconclusive call is a rough fit, not a confirmed value. Calls of active or inactive are those of the source. Rule for the calls: active = hit-call score of the fitted dose curve at least 0.9, where 1 is the maximum; inconclusive = response in the unintended direction; inactive = score below 0.9.
# Legend:
# [1] = biological target: Cellular tumor antigen p53 (Homo sapiens) (UniProt P04637); test: TOX21_p53_BLA_p3_ratio: Tox21 HCT-116 p53 Agonism Beta-lactamase Assay, Ratio, Phase 3 (AID 2283596)
# Outline: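 Cells were seeded at 4000/well, rested 5 h at 37C, then dosed with DMSO compound solutions (217-fold dilution) for 16 h. CCF4-AM substrate was loaded for 2 h at room temperature, and the 460/530 nm emission ratio was fitted for gain of signal versus DMSO.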
# [2] = TOX21_p53_BLA_p4_viability: Viability Assessment in the Tox21 HCT-116 p53 Agonism Beta-lactamase Assay, Phase 4 (AID 2283597);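 note: hits lower the luminescence signal meaning cytotoxicity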
# Outline: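 Cytotoxicity as reduced cellular ATP (CellTiter-Glo luminescence, 30 min room temperature), measured in the same wells following the CCF4 FRET p53 reading. Human HCT-116 cells received compounds in DMSO (217-fold dilution) for 16 h.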
# [3] = biological target: Cellular tumor antigen p53 (Homo sapiens) (UniProt P04637); test: TOX21_p53_BLA_p5_ratio: Tox21 HCT-116 p53 Agonism Beta-lactamase Assay, Ratio, Phase 5 (AID 2283599)
# Outline: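 HCT-116 p53-bla cells (4000/well) plated 5 h, dosed with compound (217-fold DMSO dilution) for 16 h at 37 C; CCF4-AM substrate 2 h at room temperature. Activity is the 460/530 nm emission ratio (405 nm excitation), fitted in gain-of-signal direction versus DMSO.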
# [4] = CCTE_Simmons_CellTiterGLO_HEK293T: Viability Assessment in CCTE's Assays for Thyroperoxidase (TPO) Inhibition, Simmons Lab (AID 2283665);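 note: cells exposed to compound for 24 h before readout; actives reduce ATP signal below DMSO vehicle meaning cytotoxicity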
# Outline: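 Luciferase-coupled ATP content after 24 h exposure gives viability; 8-point series from 5 nM to 87.5 uM final in 0.5% DMSO. Human HEK293T cells, 1% FBS medium, three biological replicates, dichlone positive control.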
# PGR (gene 5241) = PGR (gene 5241) (UniProt P06401); test: TOX21_PR_BLA_Followup_Agonist_ratio: Tox21 HEK293 Progesterone Receptor (PR) Agonism Beta-lactamase Follow-Up Assay, Ratio (AID 2283933)
# Outline: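 Beta-lactamase reporter readout: ratio of cleaved (ch2) to uncleaved (ch1) substrate after 2 h room-temperature loading, following 16 h compound exposure at 37C. Cells were PR-UAS-bla HEK293T in 2% charcoal-stripped FBS medium. Viability was multiplexed by CellTiter-Glo.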
# [5] = TOX21_PR_BLA_Followup_Antagonist_viability: Viability Assessment in the Tox21 HEK293 Progesterone Receptor (PR) Antagonism Beta-lactamase Follow-Up Assay (AID 2283936);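 note: cells exposed to compound with R5020 agonist for 16 h; hits lower the luminescence signal meaning cytotoxicity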
# Outline: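 PR-UAS-bla HEK293T cells in medium with 2% charcoal-stripped FBS were treated with compounds plus R5020 for 16 hr at 37C. After the beta-lactamase read, CellTiter-Glo was added to the same wells and luminescence read after 30 min at room temperature.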
# [6] = TOX21_PR_LUC_Followup_Antagonist_viability: Viability Assessment in the Tox21 HEK293 Progesterone Receptor (PR) Antagonism Luciferase Follow-Up Assay (AID 2283940)
# Outline: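 Viability counter-readout: cellular ATP measured by luciferase luminescence after 16 h compound exposure at 37C of HEK293-PR-A-luc cells, which had been cultured in charcoal-stripped serum and seeded 5 h beforehand.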
# THRA (gene 7067) = THRA (gene 7067) (UniProt P10827); test: TOX21_TRA_COA_Antagonist_Followup_ratio: Tox21 Thyroid Hormone Receptor alpha Antagonism through Coactivator Recruitment Follow-Up Assay, Ratio (AID 2283953)
# Outline: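 GST-TRα LBD 2.5 nM, BSA 0.10%, + cpd; then FITC-SRC-2 peptide 200 nM + Tb-anti-GST Ab 2 nM. TR-FRET ratio 520/495 nm. Norm: DMSO = 0%, T3 = 100%.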
# THRB (gene 7068) [7] = biological target: THRB (gene 7068) (UniProt P10828); test: TOX21_TRB_BLA_Antagonist_Followup_ratio: Tox21 Thyroid Hormone Receptor beta Antagonism Beta-lactamase (BLA) Follow-Up Assay, Ratio (AID 2283958)
# Outline: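 Beta-lactamase reporter ratio (460/530 nm, CCF4-AM substrate, 2 h room temperature) was read in TRb-bla HEK293T cells after 18 h compound treatment (11 concentrations, triplicate) at 37C in 2% charcoal-stripped FBS medium. Loss of signal fitted against DMSO.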
# THRB (gene 7068) [8] = biological target: THRB (gene 7068) (UniProt P10828); test: TOX21_TRB_COA_Antagonist_Followup_ratio: Tox21 Thyroid Hormone Receptor beta Antagonism through Coactivator Recruitment Follow-Up Assay, Ratio (AID 2283967)
# Outline: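 GST-TRb LBD 5.0 nM + 0.10% BSA, compound added; fluorescein-SRC-2 peptide 200 nM, Tb-anti-GST Ab 2 nM. TR-FRET, ex 340 / em 520:495 ratio. Norm: DMSO 0%, T3 100%.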
# [9] = biological target: Retinoic acid receptor RXR-alpha (Homo sapiens) (UniProt P19793); test: TOX21_TR_RXR_BLA_Antagonist_Followup_ratio: Tox21 Thyroid Hormone Receptor beta Retinoid X Receptor alpha (RXRa) Antagonism Beta-lactamase (BLA) Follow-Up Assay, Ratio (AID 2283972)
# Outline: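 After 5 h attachment at 37C, HEK293T RXRa-bla cells (2,500/well, 2% charcoal-stripped FBS, no phenol red) received compounds at 11 concentrations in triplicate for 16 h. Beta-lactamase read as 460:530 nm ratio after 2 h RT substrate loading.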
structure (smiles),measurement,setting,value
c1ccc(C2CC2)c(OCC2=NCCN2)c1,AC50,[1],inconclusive: 23 µM
same,outcome,[2],inactive
C=CC[C@]1(O)CC[C@H]2[C@@H]3CCC4=CCCC[C@@H]4[C@H]3CC[C@@]21C,AC50,[3],inconclusive: 11.1 µM
c1ccoc1,outcome,[3],inactive
COc1ccn(C)c(=O)c1C#N,AC50,[4],inconclusive: 53.6 µM
CCC(=O)O[C@@H]1C=C2CCC3C(CCC4(C)C3CC[C@@H]4OC(=O)CC)C2CC1 (some centres undefined),AC50,PGR (gene 5241),active: 4.48 µM
same,AC50,[5],inconclusive: 23 µM
same,AC50,[6],inconclusive: 23 µM
C[C@]12CC[C@H]3[C@@H](CCC4=CC(=O)CC[C@@H]43)[C@@H]1CC[C@@H]2OC(=O)CCc1ccco1,AC50,PGR (gene 5241),active: 2.16 µM
same,AC50,[6],inconclusive: 23 µM
C=CC[C@]1(O)CC[C@H]2[C@@H]3CCC4=CC(=O)CCC4=C3C=C[C@@]21C,AC50,THRA (gene 7067),inconclusive: 19.2 µM
same,outcome,THRB (gene 7068) [7],inactive
same,outcome,THRB (gene 7068) [8],inactive
same,outcome,[9],inactive

# A second format for part of the listing above.
structure (smiles) | measurement | setting | value
CCC(=O)O[C@@H]1C=C2CCC3C(CCC4(C)C3CC[C@@H]4OC(=O)CC)C2CC1 (some centres undefined) | AC50 | [5] | inconclusive: 23 µM
C[C@]12CC[C@H]3[C@@H](CCC4=CC(=O)CC[C@@H]43)[C@@H]1CC[C@@H]2OC(=O)CCc1ccco1 | AC50 | [6] | inconclusive: 23 µM
